Experimental findings from patent US11230581B2, “Peptides and combination of peptides for use in immunotherapy against ovarian cancer and other cancers” (Immatics Biotechnologies GmbH, priority 2015, dated 2022) are described below.

Data set [1] relates to ovarian cancer samples. The data set can be described thus: Relative LC-MS quantitation of HLA-presented peptides: presentation and over-presentation on ovarian cancer vs a panel of normal tissues (presentation score). The arrangement: species or system human; key: +++: very highly over-presented on tumors compared to a panel of normal tissues; ++: highly over-presented on tumors compared to a panel of normal tissues; +: over-presented on tumors compared to a panel of normal tissues. Particulars: over-presentation on tumors compared to a panel of normal tissues.

Data set [2] concerns additional tumor types. The data set can be described thus: LC-MS detection and over-presentation of the peptides on additional tumor types, cell lines and primary cultures. Details: species or system human. As to conditions: for Other relevant organs/ cancerous diseases: Table 4A: additional tumor types on which the peptide was found, over-presented on more than 5% of measured tumor samples, or presented on more than 5% with ratio of geometric means tumor vs normal tissues larger than 3.

Where [3] appears, read: amendment of Table 4: additional tumor types showing over-presentation (including specific presentation) on more than 5% of measured tumor samples, or presentation on more than 5% with ratio of geometric means tumor vs normal tissues larger than 3.
[4] abbreviates: additional tumor types with over-presentation on more than 5% of the measured tumor samples, or presentation on more than 5% with ratio of geometric means tumor vs normal tissues larger than 3.

On to “157 (SLNDEVPEV; listed as Homo sapiens) [compound 157]”, for which the “Peptide Presentation (presentation score)” value (“Peptide Presentation” below) in data set [1] is listed as “+++”. In addition, the “Other relevant organs/ cancerous diseases” value in data set [2] was “NSCLC, Brain Cancer, HCC, Esophageal Cancer, Uterine Cancer”. The Additional organs/cancerous diseases result in data set [2] (setting [3]) was “BRCA, Melanoma, Urinary Bladder Cancer, Gallbladder Cancer and Bile Duct Cancer, NHL, HNSCC”.

“159 (GLVGNPLPSV; listed as Homo sapiens) [compound 159]”: in data set [1], the “Peptide Presentation” value is listed as “+++”. In addition, the “Other relevant organs/ cancerous diseases” value in data set [2] was “HCC, Leukemia”. The Additional organs/cancerous diseases entry in data set [2] (setting [3]) is reported as “BRCA”.

Regarding “160 (FLFDEEIEQI; listed as Homo sapiens) [compound 160]”, the “Peptide Presentation” value in data set [1] is reported as “++”. Besides, in data set [2] (setting [3]), the Additional organs/cancerous diseases result is listed as “BRCA”.

As to “161 (ALLEGVNTV; listed as Homo sapiens) [compound 161]”, the “Peptide Presentation” value in data set [1] is given as “+++”. Moreover, the “Other relevant organs/ cancerous diseases” value in data set [2] was “NSCLC, Leukemia”. Further, in data set [2] (setting [3]), the Additional organs/cancerous diseases result is listed as “AML”.

For “163 (ALDEMGDLLQL; listed as Homo sapiens) [compound 163]”, the “Peptide Presentation” value in data set [1] is “+++”. In addition, the “Other relevant organs/ cancerous diseases” value in data set [2] is reported as “HCC”. Besides, the Additional organs/cancerous diseases result in data set [2] (setting [3]) was “BRCA, Gallbladder Cancer and Bile Duct Cancer, HNSCC”.

In the case of “164 (ALLPQPKNLTV; listed as Homo sapiens) [compound 164]”, the “Peptide Presentation” value in data set [1] is “+++”. Also, in data set [2] (setting [3]), the Additional organs/cancerous diseases result is recorded as “Melanoma”.

“166 (YLNHLEPPV; listed as Homo sapiens) [compound 166]”: the “Peptide Presentation” value in data set [1] was “+++”. The “Other relevant organs/ cancerous diseases” value in data set [2] was “SCLC, HCC, Leukemia, Esophageal Cancer”. Further, in data set [2] (setting [3]), the Additional organs/cancerous diseases result was “Brain Cancer, CLL, BRCA, AML, NHL”.

As to “167 (KVLEVTEEFGV; listed as Homo sapiens) [compound 167]”, the “Peptide Presentation” value in data set [1] is listed as “++”. Further, in data set [2], the “Other relevant organs/ cancerous diseases” value is “NSCLC, HCC, Melanoma”. Besides, in data set [2] (setting [3]), the Additional organs/cancerous diseases result is recorded as “BRCA, Urinary Bladder Cancer”.

For “169 (NLPEYLPFV; listed as Homo sapiens) [compound 169]”, the “Peptide Presentation” value in data set [1] is on record as “+++”. In addition, the “Other relevant organs/ cancerous diseases” value in data set [2] is on record as “SCLC, BrCa, Urinary bladder Cancer”.

For “170 (RLQETLSAA; listed as Homo sapiens) [compound 170]”, in data set [1], the “Peptide Presentation” value is given as “+++”. Moreover, the “Other relevant organs/ cancerous diseases” value in data set [2] is given as “HCC, Esophageal Cancer”. The Additional organs/cancerous diseases entry in data set [2] (setting [3]) is on record as “Urinary Bladder Cancer, AML”.

With “172 (VLYSYTIITV; listed as Homo sapiens) [compound 172]”, the “Peptide Presentation” value in data set [1] is on record as “+++”. The Additional organs/cancerous diseases result in data set [2] (setting [3]) was “SCLC, CLL, Uterine Cancer, NHL”.

Regarding “174 (ALAQYLITA; listed as Homo sapiens) [compound 174]”, the “Peptide Presentation” value in data set [1] is recorded as “++”. In data set [2], the “Other relevant organs/ cancerous diseases” value is listed as “Brain Cancer, HCC, PrC, Esophageal Cancer, Urinary bladder Cancer”. In addition, the Additional organs/cancerous diseases entry in data set [2] (setting [3]) is “SCLC, BRCA, Melanoma, Gallbladder Cancer and Bile Duct Cancer”.

As for “175 (YLFENISQL; listed as Homo sapiens) [compound 175]”, the “Peptide Presentation” value in data set [1] is given as “+++”. Further, in data set [2] (setting [3]), the Additional organs/cancerous diseases result was “Esophageal Cancer, Urinary Bladder Cancer, HNSCC”.

Consider “176 (YLMEGSYNKVFL; listed as Homo sapiens) [compound 176]”, for which, in data set [1], the “Peptide Presentation” value was “+++”. The “Other relevant organs/ cancerous diseases” value in data set [2] is “NSCLC, SCLC, CRC, HCC, Melanoma”. Also, in data set [2] (setting [3]), the Additional organs/cancerous diseases entry is “Urinary Bladder Cancer, Gallbladder Cancer and Bile Duct Cancer”.

In the case of “177 (YLLPEEYTSTL; listed as Homo sapiens) [compound 177]”, in data set [1], the “Peptide Presentation” value is reported as “+++”. In addition, the “Other relevant organs/ cancerous diseases” value in data set [2] was “Melanoma, Esophageal Cancer”. Moreover, the Additional organs/cancerous diseases result in data set [2] (setting [3]) was “NHL, HNSCC”.

In the case of “178 (ALTEIAFVV; listed as Homo sapiens) [compound 178]”, in data set [1], the “Peptide Presentation” value is recorded as “+”. The “Other relevant organs/ cancerous diseases” value in data set [2] is “CRC, HCC, PrC”. For the same substance, the Additional organs/cancerous diseases entry in data set [2] (setting [3]) is on record as “SCLC, CLL, BRCA, Melanoma, Uterine Cancer”.

Turning to “179 (KVLNELYTV; listed as Homo sapiens) [compound 179]”, in data set [1], the “Peptide Presentation” value was “+++”. The “Other relevant organs/ cancerous diseases” value in data set [2] is reported as “NSCLC”. For the same substance, the Additional organs/cancerous diseases result in data set [2] (setting [3]) was “CRC, BRCA, Melanoma, Uterine Cancer”.

Take “180 (FQIDPHSGLVTV; listed as Homo sapiens) [compound 180]”: the “Peptide Presentation” value in data set [1] was “+++”. Also, in data set [2] (setting [3]), the Additional organs/cancerous diseases result was “SCLC”.

Turning to “182 (MLLEAPGIFL; listed as Homo sapiens) [compound 182]”, the “Peptide Presentation” value in data set [1] is “+++”. Besides, in data set [2] (setting [3]), the Additional organs/cancerous diseases result is recorded as “CLL”.

As to “185 (FLIDDKGYTL; listed as Homo sapiens) [compound 185]”, the “Peptide Presentation” value in data set [1] is “+++”. In addition, the Additional organs/cancerous diseases entry in data set [2] (setting [3]) is given as “HNSCC”.

On to “186 (TLFFQQNAL; listed as Homo sapiens) [compound 186]”, for which, in data set [1], the “Peptide Presentation” value is “+”. In data set [2] (setting [4]), the Additional organs/cancerous diseases entry is reported as “PC, NHL, HNSCC”.

As to “187 (RQISIRGIVGV; listed as Homo sapiens) [compound 187]”, in data set [1], the “Peptide Presentation” value is given as “+++”. In data set [2] (setting [4]), the Additional organs/cancerous diseases result is “NSCLC, Urinary Bladder Cancer, Uterine Cancer, AML, HNSCC”.

For the substance “188 (GLFPVTPEAV; listed as Homo sapiens) [compound 188]”, the “Peptide Presentation” value in data set [1] is given as “+”. The “Other relevant organs/ cancerous diseases” value in data set [2] was “Colon, Rectum, HCC”. Further, the Additional organs/cancerous diseases entry in data set [2] (setting [4]) is listed as “Uterine Cancer”.

As to “190 (FLSSLTETI; listed as Homo sapiens) [compound 190]”, in data set [1], the “Peptide Presentation” value was “+++”. The “Other relevant organs/ cancerous diseases” value in data set [2] was “Urinary bladder Cancer”. Further, in data set [2] (setting [4]), the Additional organs/cancerous diseases result was “BRCA, Uterine Cancer, Gallbladder Cancer and Bile Duct Cancer”.

“191 (LLQEGQALEYV; listed as Homo sapiens) [compound 191]”: in data set [1], the “Peptide Presentation” value is on record as “+++”. In addition, in data set [2] (setting [4]), the Additional organs/cancerous diseases entry is “Uterine Cancer, Gallbladder Cancer and Bile Duct Cancer”.

Take “192 (KMLDGASFTL; listed as Homo sapiens) [compound 192]”: in data set [1], the “Peptide Presentation” value was “+++”. Further, the Additional organs/cancerous diseases result in data set [2] (setting [4]) is listed as “BRCA”.

Regarding “197 (ALGPEGGRV; listed as Homo sapiens) [compound 197]”, the “Peptide Presentation” value in data set [1] is recorded as “++”. Also, the “Other relevant organs/ cancerous diseases” value in data set [2] is listed as “HCC”. For the same substance, the Additional organs/cancerous diseases entry in data set [2] (setting [4]) was “Uterine Cancer”.

With “199 (ALQDVPLSSV; listed as Homo sapiens) [compound 199]”, the “Peptide Presentation” value in data set [1] was “+++”. Moreover, in data set [2], the “Other relevant organs/ cancerous diseases” value was “Melanoma”. Moreover, the Additional organs/cancerous diseases entry in data set [2] (setting [4]) is given as “SCLC, Urinary Bladder Cancer”.

Regarding “200 (LLFGSVQEV; listed as Homo sapiens) [compound 200]”, the “Peptide Presentation” value in data set [1] was “+++”. Also, the “Other relevant organs/ cancerous diseases” value in data set [2] is “SCLC, PC, PrC, Esophageal Cancer, Gallbladder Cancer, Bile Duct Cancer”.

Consider “201 (RLVDYLEGI; listed as Homo sapiens) [compound 201]”, for which the “Peptide Presentation” value in data set [1] is given as “+++”. In addition, the “Other relevant organs/ cancerous diseases” value in data set [2] is reported as “NSCLC, HCC, Esophageal Cancer”. Also, the Additional organs/cancerous diseases entry in data set [2] (setting [4]) was “SCLC, Uterine Cancer, Gallbladder Cancer and Bile Duct Cancer, AML”.

Consider “204 (KIAENVEEV; listed as Homo sapiens) [compound 204]”, for which the “Peptide Presentation” value in data set [1] is listed as “+++”. The “Other relevant organs/ cancerous diseases” value in data set [2] was “NSCLC, HCC, PC, Leukemia, BrCa, Esophageal Cancer”.

With “205 (SLYPGTETMGL; listed as Homo sapiens) [compound 205]”, the “Peptide Presentation” value in data set [1] is given as “+++”. Further, the “Other relevant organs/ cancerous diseases” value in data set [2] was “SCLC, Gallbladder, Bile duct”. The Additional organs/cancerous diseases result in data set [2] (setting [4]) is given as “AML”.

Turning to “206 (VLQEGKLQKLAQL; listed as Homo sapiens) [compound 206]”, the “Peptide Presentation” value in data set [1] is recorded as “+++”. Besides, the Additional organs/cancerous diseases entry in data set [2] (setting [4]) is “NSCLC, SCLC, BRCA, Uterine Cancer, HNSCC”.

For “208 (KISPVTFSV; listed as Homo sapiens) [compound 208]”, the “Peptide Presentation” value in data set [1] is listed as “+++”. Further, the “Other relevant organs/ cancerous diseases” value in data set [2] is reported as “HCC”.

Turning to “209 (KLIESKHEV; listed as Homo sapiens) [compound 209]”, in data set [1], the “Peptide Presentation” value is given as “+++”. In addition, the “Other relevant organs/ cancerous diseases” value in data set [2] is “Brain Cancer, HCC”. Further, in data set [2] (setting [4]), the Additional organs/cancerous diseases result was “Melanoma, Uterine Cancer”.

“211 (LLWPGAALL; listed as Homo sapiens) [compound 211]”: the “Peptide Presentation” value in data set [1] is recorded as “+++”. Also, in data set [2] (setting [4]), the Additional organs/cancerous diseases entry is on record as “CLL, AML, NHL”.

In the case of “212 (ALWDQDNLSV; listed as Homo sapiens) [compound 212]”, the “Peptide Presentation” value in data set [1] was “+++”. The “Other relevant organs/ cancerous diseases” value in data set [2] is on record as “HCC, PrC, BrCa, Urinary bladder Cancer”.

As for “213 (VTAAYMDTVSL; listed as Homo sapiens) [compound 213]”, the “Peptide Presentation” value in data set [1] is reported as “++”. Also, the “Other relevant organs/ cancerous diseases” value in data set [2] is reported as “NSCLC, SCLC, HCC, Melanoma, Esophageal Cancer, Gallbladder Cancer, Bile Duct Cancer”.
